Laboratory results reported in patent publication US9610367B2, “Particle and contrast agent having the particle” (CANON KABUSHIKI KAISHA, priority 2010, dated 2017).
At least one compound was matched to its structure with a doubt left.

Experiment: solubility of IR-820 in chloroform when DSPC was added
Type: physicochemical
Settings: 2 molar equivalents of DSPC added, vs IR-820 alone

For CC1(C)C(=CC=C2CCCC(C=CC3=[N+](CCCCS(=O)(=O)[O-])c4ccc5ccccc5c4C3(C)C)=C2Cl)N(CCCCS(=O)(=O)[O-])c2ccc3ccccc3c21.[Na+] [IR-820], which “improvement of solubility of IR-820 in chloroform” value is on record?
Its value is “approximately 27 times”.
